Source: PubChem BioAssay AID1259254 (NCATS, 2017)

- Purpose: 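Finding genes that stop cells copying their DNA twice in one cycle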 (primary screen)
- Cell system: human HCT116 colorectal cancer cells
- Reagent: single siRNA against human genes
- Timing: 3 days
- Read-out: 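Imaged Hoechst DNA stain sorts each cell into a cycle phase by DNA amount; per plate, G2 fraction set to 0% for non-targeting and 100% for GMNN siRNA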
- Reading the numbers: G2 robust z-score: higher = more G2 cells, more excess DNA replication
- Hit rule: 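An siRNA counts as active if its G2 robust z-score lies at least 5 MADs above the screen median; here such calls match roughly 38% of GMNN control or more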
The deposit covers about 59,000 reagents; this is an unselected part. About 1,550 of all reagents (2.6%) count as active. 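G2 share is only a proxy for re-replication; each gene was hit by three separate siRNAs, and active genes were retested.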 A number with no mark means an inactive call. The numbers tell different reagents against one gene apart. Not all columns of the deposit are shown. No sequences are given here. Not given: the amount of reagent.

| gene | reagent | G2 robust z-score |
| --- | --- | --- |
| SLC60A2 | 1 | 6.62 (active) |
| SLC60A2 | 2 | -0.853 |
| SLC60A2 | 3 | -0.0151 |
| TBX6 (T-box transcription factor 6) | 1 | -0.765 |
| TBX6 (T-box transcription factor 6) | 2 | -0.998 |
| TBX6 (T-box transcription factor 6) | 3 | 1.69 |
| CD163 (CD163 molecule) | 1 | -0.984 |
| CD163 (CD163 molecule) | 2 | 2.09 |
| CD163 (CD163 molecule) | 3 | 0.495 |
| SYT16 (synaptotagmin 16) | 1 | -0.507 |
| SYT16 (synaptotagmin 16) | 2 | -0.792 |
| SYT16 (synaptotagmin 16) | 3 | 0.898 |
| SH3BGRL3 (SH3 domain binding glutamate rich protein like 3) | 1 | -0.77 |
| SH3BGRL3 (SH3 domain binding glutamate rich protein like 3) | 2 | -0.439 |
| SH3BGRL3 (SH3 domain binding glutamate rich protein like 3) | 3 | -0.175 |
| GSTP1 (glutathione S-transferase pi 1) | 1 | 2.23 |
| GSTP1 (glutathione S-transferase pi 1) | 2 | -0.446 |
| GSTP1 (glutathione S-transferase pi 1) | 3 | -0.712 |
| PRXL2A (peroxiredoxin like 2A) | 1 | -0.514 |
| PRXL2A (peroxiredoxin like 2A) | 2 | 0.0742 |
| PRXL2A (peroxiredoxin like 2A) | 3 | -0.458 |
| FAM162A (family with sequence similarity 162 member A) | 1 | -0.254 |
| FAM162A (family with sequence similarity 162 member A) | 2 | -0.634 |
| FAM162A (family with sequence similarity 162 member A) | 3 | -0.801 |
| B4GALT2 (beta-1,4-galactosyltransferase 2) | 1 | 0.265 |
| B4GALT2 (beta-1,4-galactosyltransferase 2) | 2 | -0.1 |
| B4GALT2 (beta-1,4-galactosyltransferase 2) | 3 | -0.664 |
| H3C15 (H3 clustered histone 15) | 1 | 2.38 |
| H3C15 (H3 clustered histone 15) | 2 | -0.341 |
| H3C15 (H3 clustered histone 15) | 3 | 0.611 |
| TPSG1 (tryptase gamma 1) | 1 | -0.208 |
| TPSG1 (tryptase gamma 1) | 2 | -1.16 |
| TPSG1 (tryptase gamma 1) | 3 | 0.2 |
| KLHL32 (kelch like family member 32) | 1 | 1.98 |
| KLHL32 (kelch like family member 32) | 2 | -0.732 |
| KLHL32 (kelch like family member 32) | 3 | 0.297 |
| SLC39A3 | 1 | -0.01 |
| SLC39A3 | 2 | -0.938 |
| SLC39A3 | 3 | -0.254 |
| TRPM5 | 1 | -1.26 |
| TRPM5 | 2 | -0.535 |
| TRPM5 | 3 | -0.876 |
| LINC02873 (long independently transcribed non-coding RNA 2873) | 1 | -0.424 |
| LINC02873 (long independently transcribed non-coding RNA 2873) | 2 | -0.153 |
| LINC02873 (long independently transcribed non-coding RNA 2873) | 3 | 1.1 |
| REG3A (regenerating family member 3 alpha) | 1 | -0.441 |
| REG3A (regenerating family member 3 alpha) | 2 | -0.621 |
| REG3A (regenerating family member 3 alpha) | 3 | -0.654 |
| STK32C (serine/threonine kinase 32C) | 1 | -1.23 |
| STK32C (serine/threonine kinase 32C) | 2 | 0.275 |
| STK32C (serine/threonine kinase 32C) | 3 | -0.581 |
| GOLGA6L2 (golgin A6 family like 2) | 1 | -0.558 |
| GOLGA6L2 (golgin A6 family like 2) | 2 | -0.587 |
| GOLGA6L2 (golgin A6 family like 2) | 3 | 0.582 |
| TEC (tec protein tyrosine kinase) | 1 | 2.07 |
| TEC (tec protein tyrosine kinase) | 2 | 0.414 |
| TEC (tec protein tyrosine kinase) | 3 | -0.136 |
| COBLP1 (COBL pseudogene 1) | 1 | 1.12 |
| COBLP1 (COBL pseudogene 1) | 2 | -0.902 |
| COBLP1 (COBL pseudogene 1) | 3 | -0.758 |
| AHSG (alpha 2-HS glycoprotein) | 1 | 0.327 |
| AHSG (alpha 2-HS glycoprotein) | 2 | -0.236 |
| AHSG (alpha 2-HS glycoprotein) | 3 | -0.435 |
| FLT3LG (fms related receptor tyrosine kinase 3 ligand) | 1 | -0.00654 |
| FLT3LG (fms related receptor tyrosine kinase 3 ligand) | 2 | 0.986 |
| FLT3LG (fms related receptor tyrosine kinase 3 ligand) | 3 | 0.328 |
| GUK1 (guanylate kinase 1) | 1 | -0.482 |
| GUK1 (guanylate kinase 1) | 2 | -0.747 |
| GUK1 (guanylate kinase 1) | 3 | 0.189 |
